The supplement of paper PMC5949888
Most values lie at the floor of the assay. Slopes are relative: functional sequences can read slightly below zero.

The substances below were run on Saccharomyces cerevisiae PS128 hsf1 delta, HSF1(1-493) fusion (assay: growth estimate (transactivation domain function in HSF1 fusion, heat-shock survival) (a.u. (slope of normalised read count over time)); higher = stronger growth at 37°C, i.e. more transactivation activity). Conditions: library: random library.
QSRTPSAAAAPQVQKPCEDR showed a growth estimate of less than -0.25.
Work on QSRVANR yielded a growth estimate of less than -0.25.
Work on QSSRRESLT yielded a growth estimate of less than -0.25.
Substance QSSRSGNTRKLYQMI has a growth estimate of less than -0.25.
For QSTSGLP, the growth estimate was less than -0.25.
QSVENGPNPRQTHVPGETQS showed a growth estimate of less than -0.25.
For QSVTI, the growth estimate was less than -0.25.
Work on QSYKAKLSVADFKLVRRSEC yielded a growth estimate of less than -0.25.
Substance QTA has a growth estimate of less than -0.25.
QTAKSPLRRTESPWAISCRG showed a growth estimate of less than -0.25.
QTFASWRRWTCRGLIFYRLG was tested, and the growth estimate was less than -0.25.
QTGGCLSMIQHARDLYIVFL gave a growth estimate of less than -0.25.
With QTGVTQQPSSIFFAYVVRGQ the growth estimate was less than -0.25.
QTKLGLGISSYGPRF showed a growth estimate of less than -0.25.
For QTMAGY, the growth estimate was less than -0.25.
In the case of QTMFRGHSLKRSEAFLAGSP, the growth estimate is reported as less than -0.25.
QTMTGVDVKLAGSAFRYHRN gave a growth estimate of less than -0.25.
Substance QTRIPVHLEMDPAFPIKGRL has a growth estimate of less than -0.25.
For QTRQTPTVSRNNDD, the growth estimate was less than -0.25.
In the case of QTSIHSQGLPVGGG, the growth estimate is reported as less than -0.25.
With QTSS the growth estimate was less than -0.25.
QTTSRL gave a growth estimate of less than -0.25.
Substance QTTVL has a growth estimate of less than -0.25.
Work on QTVVRRIKVTLSCVIGSVCP yielded a growth estimate of less than -0.25.
In the case of QVAG, the growth estimate is reported as less than -0.25.
With QVDLPYRLII the growth estimate was less than -0.25.
For QVESVKVRDKYG, the growth estimate was less than -0.25.
In the case of QVGGLCVNRLICAVSVGPTP, the growth estimate is reported as less than -0.25.
QVGYMAWGRSYVHRRRFLTR gave a growth estimate of -0.246.
QVHLEDLRSYRVLCRSMYPV was tested, and the growth estimate was less than -0.25.
With QVLLKVYSSSMY the growth estimate was -0.185.
For QVLR, the growth estimate was less than -0.25.
Substance QVNLQGGVTG has a growth estimate of less than -0.25.
In the case of QVNLSLGRNSPRVTSACTAD, the growth estimate is reported as less than -0.25.
For QVPGECEATDWAVSNRPRSA, the growth estimate was less than -0.25.
QVPLSLRIA showed a growth estimate of less than -0.25.
For QVPTLTPLGLSIAVDHCWTV, the growth estimate was less than -0.25.
QVQFVRNGLLGPSGSYRPAD showed a growth estimate of less than -0.25.
For QVQLHRRHPMH, the growth estimate was less than -0.25.
For QVRCDIPFCLTISWGPRNLG, the growth estimate was less than -0.25.
QVRGDPIGGRSCSPRTRWLA was tested, and the growth estimate was less than -0.25.
QVTAKTALLLRIRLREAFSD gave a growth estimate of less than -0.25.
QVTYSFTEGGFSEVWTSATG gave a growth estimate of less than -0.25.
Work on QVVVPLGFNFSG yielded a growth estimate of less than -0.25.
In the case of QVYHPIPIKDSHLLGCTCPP, the growth estimate is reported as less than -0.25.
QWGRY was tested, and the growth estimate was less than -0.25.
QWLGLYEIGSLTSTRLDPGG was tested, and the growth estimate was 0.103.
With QWRGKPKGAKRDACAQSYGH the growth estimate was less than -0.25.
For QWSGVGLEKSLVVMKGVSSS, the growth estimate was less than -0.25.
Substance QWTTEPADVLW has a growth estimate of 0.595.
With QWYSY the growth estimate was less than -0.253.
For QYGGTASMKFGVGVRPGGAR, the growth estimate was less than -0.25.
Substance QYGLHCCATS has a growth estimate of -0.245.
With QYPGDFGGIRTLGVTMVSL the growth estimate was less than -0.25.
QYPLGSQRALLQYGLFLQNE was tested, and the growth estimate was less than -0.25.
Substance QYPSERCSCPKRHSRASFQ has a growth estimate of less than -0.25.
Work on QYPWRAREGVVRAARTISPR yielded a growth estimate of less than -0.25.
QYQLRGDGPVQQCVR gave a growth estimate of less than -0.25.
Substance QYQRRQPNQSGGKGRHERTI has a growth estimate of less than -0.25.
QYRCHLDIDGKAPLNGADPQ showed a growth estimate of less than -0.25.
For QYRTKGVAHVKWFWHAPSET, the growth estimate was less than -0.25.
Substance QYSELTSGEVSPARWEYLT has a growth estimate of less than -0.25.
QYSV showed a growth estimate of -0.245.
QYTRGDPLRQNVTEHPTLSM was tested, and the growth estimate was less than -0.25.
QYVIGIFEI was tested, and the growth estimate was less than -0.25.
In the case of RACCCN, the growth estimate is reported as less than -0.25.
With RACNTRIHAERTLYADFGEG the growth estimate was less than -0.25.
Substance RACSGVIHVIESPLLMRRAL has a growth estimate of less than -0.25.
RACTFR gave a growth estimate of less than -0.25.
Work on RADMVQSWVVRVLSGPKLAF yielded a growth estimate of less than -0.25.
RADRVKEW gave a growth estimate of less than -0.25.
